Assay results taken from patent US9260507B2, “Peptide promoting cell adhesion and migration” (Symatese, priority 2009, dated 2016).
Some of these results come from one statement about several compounds together.

T1: syndecan-1 (Homo sapiens, UniProt P18827)
T1 construct: endogenous in cells; host or cells: primary normal human keratinocytes from foreskin biopsies
T1 sequence (P18827 23-310): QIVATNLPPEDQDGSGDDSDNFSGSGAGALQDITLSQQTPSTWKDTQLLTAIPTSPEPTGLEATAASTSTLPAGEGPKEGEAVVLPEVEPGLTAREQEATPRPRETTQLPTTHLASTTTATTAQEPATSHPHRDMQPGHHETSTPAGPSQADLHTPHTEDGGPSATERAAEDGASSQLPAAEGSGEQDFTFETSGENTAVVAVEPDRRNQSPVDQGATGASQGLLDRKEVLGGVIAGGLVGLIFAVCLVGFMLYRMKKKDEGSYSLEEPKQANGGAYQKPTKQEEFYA


Test system: normal human keratinocytes
Experiment: Migration of NHKs by real-time videomicroscopy on living cells
Format: cell-based
Conditions: 10 μg/ml in culture medium, recorded 5 hours

Row | Molecule | Distance (from the origin) of keratinocyte displacement
1 | LG4/5 protein: purified recombinant LG4/5 domain of the alpha3 chain of pre-LN332 (laminin 332) (protein) DTPVASPRSVKVWQDACSPLPKTQANHGALQFGDIPTSHLLFKLPQELLKPRSQFAVDMQTTSSRGLVFHTGTKNSFMALYLSKGRLVFALGTDGKKLRIKSKEKCNDGKWHTVVFGHDGEKGRLVVDGLRAREGSLPGNSTISIRAPVYLGSPPSGKPKSLPTNSFVGCLKNFQLDSKPLYTPSSSFGVSSCLGGPLEKGIYFSEEGGHVVLAHSVLLGPEFKLVFSIRPRSLTGILIHIGSQPGKHLCVYLEAGKVTASMDSGAGGTSTSVTPKQSLCDGQWHSVAVTIKQHILHLELDTDSSYTAGQIPFPPASTQEPLHLGGAPANLTTLRIPVWKSFFGCLRNIHVNHIPVPVTEALEVQGPVSLNGCPDQ | ≤ 150 μm

Biological target: T1, syndecan-1
Experiment: Affinity chromatography (pull-down) with peptide-coated beads and syndecan-1 immunodetection
Format: binding
Conditions: lysate of normal human keratinocytes, 2 mg; immunoblotting with antibody H174
Protocol: (A) A lysate of normal human keratinocytes was prepared as described in the Materials and Methods section and 2 mg of the lysate were incubated with neutravidin beads not coated or coated with the biotinylated peptides KKLRIKSKEK (SEQ ID NO: 1), PSGKPKSLP (SEQ ID NO: 19) and TSVTPKQSL (SEQ ID NO: 20). After washing, the material bound to the beads was digested with a mixture of heparitinase I and chondroitinase ABC to release the protein part of the syndecan-1 from the glycosaminoglycans. The samples were then analysed by SDS PAGE electrophoresis in an 8% acrylamide gel under non-reducing conditions and by immunoblotting with polyclonal anti-syndecan antibody H174. (B) A lysate of normal human keratinocytes was prepared and 2 mg of the lysate were incubated with neutravidin beads not coated or coated with the biotinylated peptide KKLRIKSKEK (SEQ ID NO: 1), or with sepharose beads coated with the whole LG4/5 fragment. After washing, the material bound to the beads was digested with a mixture of heparitinase I and chondroitinase ABC to release the protein part of the syndecan-1 from the glycosaminoglycans. The samples were then analysed by SDS PAGE electrophoresis in an 8% acrylamide gel under non-reducing conditions and by immunoblotting with polyclonal anti-syndecan antibody H174. (A, B) The position of molecular weight markers is shown on the left.
A series of point mutations was introduced into the peptide KKLRIKSKEK (SEQ ID NO: 1) by successively replacing each amino acid by an alanine (A). The different biotinylated mutated peptides are shown in the figure and numbered from A1 to A10. The wild type peptide (T+) is shown in black. The amino acids ‘in bold’ show the position of the basic amino acids (lysines and arginines) thought to play an important role in the interaction with glycosaminoglycans. Each of the mutations to alanine (A) is highlighted. A lysate of normal human keratinocytes was prepared as described in the Materials and Methods section and 2 mg of the lysate were incubated with neutravidin beads not coated (T−), coated with the peptide KKLRIKSKEK (SEQ ID NO: 1) (T+) or coated with the different mutated peptides (A1 to A10). After washing, the material bound to the beads was digested with a mixture of heparitinase I and chondroitinase ABC to release the protein part of the syndecan-1 from the glycosaminoglycans. The samples were then analysed by SDS PAGE electrophoresis in an 8% acrylamide gel under non-reducing conditions and by immunoblotting with polyclonal anti-syndecan antibody H174. The position of molecular weight markers is shown on the left.
A series of point or multiple mutations was introduced into the peptide KKLRIKSKEK (SEQ ID NO: 1) by replacing one or more lysines (K) by a glutamine (Q). The different biotinylated mutated peptides are shown in the figure and referred to as U1 to U9. The wild type peptide is denoted as T+. The amino acids ‘in bold’ show the position of the basic amino acids (lysines and arginines) thought to play an important role in the interaction with glycosaminoglycans. Each of the mutations to glutamine (Q), point or multiple, is highlighted. A peptide shortened by 3 residues is shown as U9. A lysate of normal human keratinocytes was prepared as described in the Materials and Methods section and 2 mg of the lysate were incubated with neutravidin beads not coated (line T−), coated with the peptide KKLRIKSKEK (SEQ ID NO: 1) (T+) or coated with the different modified peptides (U1 to U9). After washing, the material bound to the beads was digested with a mixture of heparitinase I and chondroitinase ABC to release the protein part of the syndecan-1 from the glycosaminoglycans. The samples were then analysed by SDS PAGE electrophoresis in an 8% acrylamide gel under non-reducing conditions and by immunoblotting with polyclonal anti-syndecan antibody H174. The position of molecular weight markers is shown on the left. […]

Row | Molecule | Binding of syndecan-1 to the biotinylated peptide on beads
2 | KKLRSKSKEK [M7] | none of these mutations resulted in inhibiting the interaction
3 | KKLRIKQKEK [M9] | none of these mutations resulted in inhibiting the interaction
4 | KKLRIKLKEK [M8] | none of these mutations resulted in inhibiting the interaction
5 | KKLRKKSKEK [M6] | none of these mutations resulted in inhibiting the interaction
6 | KKLRHKSKEK [M4] | none of these mutations resulted in inhibiting the interaction
7 | KKLRTKSKEK [M5] | none of these mutations resulted in inhibiting the interaction
